# Assay results published in PubChem BioAssay AID1671190 (National Center for Advancing Translational Sciences (NCATS), 2021).
# The chains behind the UniProt entries cited, without tags or fusion partners. Where a name states a change or a piece, a line headed by the entry shows the natural chain unless it says otherwise.
# UniProt P18054: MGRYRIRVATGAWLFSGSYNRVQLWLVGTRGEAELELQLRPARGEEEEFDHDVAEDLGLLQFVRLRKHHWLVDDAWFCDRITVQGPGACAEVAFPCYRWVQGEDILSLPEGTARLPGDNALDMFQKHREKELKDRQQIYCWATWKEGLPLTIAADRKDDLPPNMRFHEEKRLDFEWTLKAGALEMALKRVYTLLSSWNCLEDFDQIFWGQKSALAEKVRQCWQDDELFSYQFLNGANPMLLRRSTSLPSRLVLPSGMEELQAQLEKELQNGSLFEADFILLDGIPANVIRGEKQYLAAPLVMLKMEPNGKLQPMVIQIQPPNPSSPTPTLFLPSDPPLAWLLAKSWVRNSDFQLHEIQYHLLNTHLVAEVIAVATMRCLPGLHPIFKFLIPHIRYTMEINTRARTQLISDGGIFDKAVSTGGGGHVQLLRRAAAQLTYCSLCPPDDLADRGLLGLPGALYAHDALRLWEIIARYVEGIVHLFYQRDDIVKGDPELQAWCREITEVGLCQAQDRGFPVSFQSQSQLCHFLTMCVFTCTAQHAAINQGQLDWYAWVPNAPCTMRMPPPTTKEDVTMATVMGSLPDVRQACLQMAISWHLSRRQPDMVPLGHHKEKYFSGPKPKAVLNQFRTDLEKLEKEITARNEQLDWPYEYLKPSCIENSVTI
# About 6,100 (1.1%) of roughly 580,000 compounds were called active. Inconclusive results, whose numbers are uncertain, are shown with a selection of clear calls. Calls come from the whole dose curve; as a rule, active = well fitted inhibition curve with a large enough effect; inconclusive = small, poorly fitted or top-dose-only effect, or another doubt; inactive = no such curve, though single readings can be large or run the other way. Potencies beside an inconclusive call are fits to weak or partial responses and may not hold up.
# Target: Polyunsaturated fatty acid lipoxygenase ALOX12 (Homo sapiens) (UniProt P18054)
# Assay: Primary qHTS assay for inhibitors of human arachidonate 12S-lipoxygenase (ALOX12): Round 2
# Details: purified 12hLO, xylenol orange hydroperoxide absorbance; activity change, negative = inhibition: at 108 µM (top of the series) unless noted
# How it was run: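 Purified human 12hLO (150 nM final) in 25 mM Hepes, 0.01% Triton X-100, pH 7.0 was preincubated 15 min at room temperature with compound. Then 40 uM arachidonic acid was added, 30 min. Hydroperoxide was read by Fe-XO absorbance ratio 573/405 nm.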
# % is set by controls: 0 for no effect and ±100 for the full control effect; potency is the fitted concentration of half-maximal effect.
SMILES,Potency,"activity change, negative = inhibition"
Cc1ccc(NC(=O)n2ncc3c(C)cccc32)c(C)c1,inactive,
COC(=O)CCNC(=O)C1CCN(c2ncnc3sc4c(c23)CCC4)CC1,,inactive: 31.6%
CCn1c(SCC(=O)NNC(=O)c2ccc(OC)cc2)nnc1C1CC1,,inactive: 80.9%
CC(O)(c1ccc(F)c(F)c1)c1nc(-c2ccc3ccccc3c2)cs1 (stereo not drawn),"inconclusive: 79.4 µM [inhibitor, single point]",
CCOCCCNC(=O)C(c1ccc(C)cc1)N(Cc1ccc2c(c1)OCO2)C(=O)c1ccccc1O (stereo not drawn),,inactive: 4.37%
C[C@@H]1CCCCO[C@@H](CN(C)C(=O)CCC(F)(F)F)[C@@H](C)CN([C@H](C)CO)C(=O)c2cc(N(C)C)ccc2O1,"inconclusive: 39.8 µM [inhibitor, single point]",
COc1cccc(-c2ccc3ncnc(NC4CC4)c3c2)c1,"inconclusive: 50.1 µM [inhibitor, partial curve, poor fit]",
COc1ccc(OC)c(N(C(=O)c2snc(C(N)=O)c2N)C(C(=O)NCc2ccccc2)c2ccc(O)cc2)c1 (stereo not drawn),"inconclusive: 44.7 µM [inhibitor, partial curve, poor fit]",
Cc1cc(/C=N/NC(=O)C(O)(c2ccccc2)c2ccccc2)c(C)n1-c1ccc(C(=O)O)cc1,"inconclusive: 39.8 µM [inhibitor, partial curve, poor fit]",
COc1ccc(CCNC(=O)Cn2nc3n(c2=O)CCCCC3)cc1OC,,inactive: 19.1%
COC(=O)[C@H]1[C@H]2C[C@@H]3c4[nH]c5cc(OC)ccc5c4CCN3C[C@H]2C[C@@H](OC(=O)c2cc(OC)c(OC)c(OC)c2)[C@@H]1OC,,inactive: -25.4%
COC(=O)c1ccc(C(=S)N2CCOCC2)cc1,"inconclusive: 56.2 µM [inhibitor, partial curve, poor fit]",
Cc1cccc(N2NC(=O)/C(=C/c3ccc(-c4ccc(Cl)c(C(=O)O)c4)o3)C2=O)c1,"inconclusive: 44.7 µM [inhibitor, partial curve, poor fit]",
COCCn1cnc2c1c(=O)n(CC(=O)Nc1ccccc1F)c(=O)n2Cc1ccccc1,"inconclusive: 56.2 µM [inhibitor, single point]",
COc1cccc(NC(=O)CSc2cc(C)c3ccccc3n2)c1,,inactive: -24.5%
Cc1ccc(SC(CC(=O)c2ccc(C(C)(C)C)cc2)C(=O)O)cc1 (stereo not drawn),"inconclusive: 35.5 µM [inhibitor, partial curve]",
CC(C)NC(=O)C(=O)NC1CCCCCC1,"inconclusive: 79.4 µM [inhibitor, partial curve, poor fit]",
CC1(c2nnnn2-c2ccc3c(c2)OCCO3)CCC(=O)N1C1CCN(Cc2ccccc2)CC1 (stereo not drawn),"inconclusive: 17.8 µM [inhibitor, partial curve, poor fit]",

# Reprinted at random: two compounds from above
SMILES,Potency,"activity change, negative = inhibition"
C[C@@H]1CCCCO[C@@H](CN(C)C(=O)CCC(F)(F)F)[C@@H](C)CN([C@H](C)CO)C(=O)c2cc(N(C)C)ccc2O1,"inconclusive: 39.8 µM [inhibitor, single point]",
Cc1ccc(SC(CC(=O)c2ccc(C(C)(C)C)cc2)C(=O)O)cc1 (stereo not drawn),"inconclusive: 35.5 µM [inhibitor, partial curve]",
